According to patent publication US10792287B2, “Methods for treating mitochondrial diseases” (The Regents of the University of California, priority 2015, dated 2020):
At least one structure is not confirmed: it was looked up by name or label, or the drawing left a doubt.

Experiments:
LHON cybrids (11778 G>A) = assay: Complex I-driven ATP synthesis in rotenone-inhibited LHON mutant cybrids (luciferase-based, high-throughput screen and concentration-response); assay type: cell-based; settings: physiologically relevant doses; data not shown
[1] = tested on: inflammatory genes in retinas of Ndufs4 KO mice; assay: qRT-PCR of inflammatory genes in retinas after rapamycin treatment (Example 1); assay type: in vivo, mouse; settings: rapamycin 8 mg/kg intraperitoneally daily P22-P31 (nine days); vs vehicle Ndufs4 KO
Experimental: FIG. 6 depicts an experimental reversal of inflammatory gene induction by rapamycin. White bars, a mean increase in transcript level of 16/16 inflammatory markers was observed by qRT-PCR in retinas of Ndufs4 KO mice compared to wild type. […] Statistical significance determined by student's t test. * P<0.05, ** P<0.01.
Rapamycin was dissolved in DMSO to 100 mg/mL. This was diluted in 5% PEG-400/5% Tween-20 (vehicle) to a concentration of 0.6 mg/mL, sterile filtered, and stored at −80 for long-term storage. Rapamycin treated mice were injected with 132 microliters/10 g body weight for a final dose of 8.0 mg/kg (Johnson et al., Science, 2013, 342, 1524-1528). Vehicle mice were injected with equal volume of PBS and DMSO lacking rapamycin. […]
The change in PCR products as the reaction proceeded was monitored by SYBR green dye (Invitrogen, Grand Island, N.Y.). […] Quantification cycle (Cq) values obtained by the Lightcycler were analyzed by normalizing the values to the reference genes and delta Cq values were calculated to determine relative gene expression values compared to wild type. Delta delta Cq was also calculated to determine the fold change difference between Ndufs4 knockout and wild type. Significance, p<0.05 was determined using two sample independent student's t-test statistics with equal sample size and assuming equal variance.

Ndufs4 knockout mice = assay: Visual cliff test; assay type: in vivo, mouse; settings: P21-P35 treatment; papaverine 20 mg/kg, zolpidem 20 mg/kg, rapamycin 8 mg/kg i.p.; idebenone 200 mg/kg oral
[2] = tested on: innate immune/inflammatory response in Ndufs4 KO retina; assay: Retinal gene expression of innate immune and inflammatory markers after drug treatment (Example 3); assay type: in vivo, mouse; settings: Ndufs4 KO mice; doses as in drug formulation
Experimental: The graphs represent RNA expression of B2m (FIG. 21A), Tlr2 (FIG. 21B), Cxc110 (FIG. 21C), Cc15 (FIG. 21D), and Aif1 (FIG. 21E) in the wild type and Ndufs4 knockout retina. Bars represent mean delta Ct values normalized to housekeeping genes, Actb and Mapk1. Error bars represent standard error of the mean. Statistical significance was determined by two-tailed student's t test. * P<0.05, ** P<0.01, **** P<0.0001.
(§1) Wild type and Ndufs4 knockout mice were placed in one of five groups: vehicle, papaverine (20 mg/kg), zolpidem (20 mg/kg), rapamycin (8 mg/kg), or idebenone (200 mg/kg). For papaverine, zolpidem, and rapamycin, drug was dissolved in DMSO which was diluted in 5% PEG-400/5% Tween-20 in PBS. Vehicle contained all components except for the drug. The solution was then sterile filtered and intraperitoneal injections were performed using a 30 gauge needle. Idebenone was administered as a jelly and consumed orally.
We have previously shown that inflammatory gene expression of Aif1, Tlr2, B2m, Cc15, and Cxc110 are all elevated in the Ndufs4 KO mouse compared to wild type by more than 3-fold, indicating an inflammatory pathomechanism of mitochondrial blindness (Yu et al., Proc Natl Acad Sci USA, 2015, 112(42): E5689-98). […]

Ndufs4 KO mice [3] = assay: Starburst amacrine cell count (ChAT staining of whole retina); assay type: in vivo, mouse; settings: two weeks (P21-P35) intraperitoneal injections
Experimental: 20× confocal images of whole retina stained with ChAT (marker of starburst amacrine cells) from wild type (FIG. 22A), Ndusf4 KO vehicle treated (FIG. 22B), Ndufs4 KO papaverine treated (FIG. 22C), Ndufs4 KO zolpidem treated (FIG. 22D), and Ndufs4 KO rapamycin treated (FIG. 22E) are shown.
as §1

Ndufs4 KO mice [4] = settings: Johnson et al., Science, 2013; cited from earlier work

| SMILES | protection from rotenone in 11778 cells (LHON cybrids (11778 G>A)) | inflammatory gene induction in retina [1] | visual function (median # edge detections) (Ndufs4 knockout mice) | innate immune/inflammatory gene expression (B2m, Tlr2, Cxcl10, Ccl5, Aif1) in retina [2] | starburst amacrine cell loss (Ndufs4 KO mice [3]) | lifespan and neurological damage (Ndufs4 KO mice [4]) |
| --- | --- | --- | --- | --- | --- | --- |
| C=C[C@@]1(C)CC(=O)[C@]2(O)[C@@]3(C)[C@@H](O)CCC(C)(C)[C@@H]3[C@H](O)[C@H](OC(C)=O)[C@@]2(C)O1 [Forskolin, forskolin] | did not produce any measurable protection |  |  |  |  |  |
| CO[C@H]1C[C@@H]2CC[C@@H](C)[C@@](O)(O2)C(=O)C(=O)N2CCCC[C@H]2C(=O)O[C@H]([C@H](C)C[C@@H]2CC[C@@H](O)[C@H](OC)C2)CC(=O)[C@H](C)/C=C(\C)[C@@H](O)[C@@H](OC)C(=O)[C@H](C)C[C@H](C)/C=C/C=C/C=C/1C [rapamycin] |  | inhibition of inflammatory gene induction with gene expression levels similar to wild type levels | visual function was preserved | significantly inhibited a portion of the innate immune/inflammatory response | significant protection of startburst amacrine cells from apoptosis | rescued |
